The list shows a part of the results. Rule as the data show it: active = 2 or more and inactive = the rest. Most values lie within the scatter of the assay; repeated measurements hardly agree.
Tested on: Lgr5 (MarsCy1-Lgr5-EGFP, U2OS)
Test: cell-surface Lgr5 expression (SCi1 fluorescence, background-subtracted) relative to WT DMSO (fold of DMSO control); higher = more Lgr5 at the plasma membrane
Conditions: U2OS MarsCy1-Lgr5-EGFP stable; treatment time: overnight; library: ActiProbe-5K (TimTec); 25 µM

cell-surface Lgr5 expression, inactive:
NC(=O)c1c(C(=O)O)no[n+]1[O-] 1.18, O=[N+]([O-])c1ccc2c(c1)oc1ccc(S(=O)(=O)N3CCCC3)cc12 1.62, COc1c(N)cc(-c2nnn[nH]2)cc1N 1.11, CCn1cc(-c2cc[nH]n2)cn1 1.02, O=c1cc(O)c2sc(SCCN3CCCC3)nc2[nH]1 1.22, Nn1c(CCC(=O)O)nc2sc3c(c2c1=O)CCCC3 1.1, O=C([O-])C1=C/C(=C(/c2ccccc2)c2cc(C(=O)[O-])c(O)c3ccccc23)c2ccccc2C1=O 1.4, NCCSc1[nH]ncc1[N+](=O)[O-] 1.19, O=S(=O)(c1ccc(F)cc1)N1CCCCCC1 1.32, CCCC[n+]1c(C)sc2ccccc21 1.26, N#CC1=C(N)n2c(nc3ccccc32)C(C#N)C12CCCC2 (stereo not given) 1.05, CC(C)[C@@H]1CC[C@@H](C)C[C@@H]1OC(=O)C(O)C(O)C(=O)O[C@H]1C[C@H](C)CC[C@H]1C(C)C (stereo not given in full) 1.3, C(=N/c1ccc(/N=N/c2ccccc2)cc1)/c1ccc2ccccc2c1 0.755, COCCOC(=O)/C(C#N)=C\c1ccoc1 1.12, CC(C)n1nnc(CC(=O)O)n1 1.19, O=[N+]([O-])c1ccc(N2CCOCC2)c(S(=O)(=O)N2CCOCC2)c1 1.06, FC(F)(F)c1ccc(/C=N/n2c(S)nnc2-c2ccncc2)cc1 1.04, COCc1cc(=O)n2nc(NC(C)=O)[nH]c2n1 1.32, CC(C)N1CCC2(CC1)C(C#N)=C(O)NC1=C2C(=O)CC(C)(C)C1 1.33, O=S(=O)(c1ccc(Br)cc1)N1CCCc2ccccc21 1.2, CC(=O)C1=C(C)OC(N)=C(C#N)C1c1ccco1 (stereo not given) 1.08, Fc1cc(F)c(F)c(OCc2nc(-c3cccs3)no2)c1F 1.17, CC(C)c1nnc(N)s1 1.24, Cn1cc(-c2cc(C(F)(F)F)c3c(C4CC4)nn(C)c3n2)cn1 1.05, NC(=O)CSc1nnc(SCC(N)=O)s1 1.03, N#Cc1cc2c(nc1SC(CCC1CC1)c1ccccc1)CCC2 (stereo not given) 0.966, CCCCCOC(=O)CSc1n[nH]c(=O)[nH]c1=O 1.28, C=CCC1C=CCC(CC=C)N1C(=O)CCC(=O)O (stereo not given) 1.26, COc1nc(N2CCOCC2)nc(-n2cccc2)n1 1.23, O=C(O)C1OC(C(=O)O)C(C(=O)O)C1C(=O)O (stereo not given) 1.13, O=[N+]([O-])c1ccc(OS(=O)(=O)c2ccc3ccccc3c2)c2ncccc12 1.36, O=C(O)CCCCCCCCCCC1CCCCC1=O (stereo not given) 1.38, C/C=C/CSc1nc2nc(C)cc(C)n2n1 1.18, O=C(CCn1nc(C(F)(F)F)c(Cl)c1C1CC1)Nc1nccs1 1.37, C=CCSc1sc2c(O)nc(=O)[nH]c2c1C#N 1.1, Cn1c(=S)n(CCSc2nc3ccccc3n2-c2ccccc2)c2ccccc21 1.86, CCOC(=O)c1c(O)c(Cl)c(C)[nH]c1=O 1.27, Cn1c(=O)c2c(ncn2CCC#N)n(C)c1=O 1.13, O=S(=O)(NC1CCCC1)c1ccc(Br)cc1 1.32, O=C(CSc1nc2[nH]c(=O)cc(O)c2s1)Nc1nccs1 1.14, CCCCNC(=S)N1CCOCC1 1.38, CC(C)=CC/C=C1\CCC2C(=O)NC(=O)C2C1 (stereo not given) 1.4, O=S(=O)(c1ccc(Cl)cc1)N1CCc2ccccc21 1.26, CCC1(C)Cc2c(c(=S)n(C)c3ncnc(N)c23)CO1 (stereo not given) 0.533, N#CC1=C(S)NC(=O)C(C#N)C12CCCCC2 (stereo not given) 1.33, c1cnc2c(OCc3nc4ccccc4[nH]3)cccc2c1 1.19, COc1ccc2c(c1)Nc1ccccc1S2 1.2, Nc1c(Cl)cc([N+](=O)[O-])cc1Br 1.25, CCc1ccc(-c2cn3c(n2)SCC3)cc1 1.47, Clc1cc(/C=N\c2c3ccccc3nc3ccccc23)c2c(c1)COCO2 1.14, Cn1c(SCc2ccon2)nc2sc3c(c2c1=O)CCC3 1.13, COc1ccc(/C=N/Nc2nncn2N)cc1 1.43, N#Cc1c(NC(=O)c2[nH]nc([N+](=O)[O-])c2Br)sc2c1CCC2 1.26, c1ccc(CNCc2cn(Cc3ccccc3)c3ccccc23)cc1 1.03, O=C(O)c1ccc(=O)[nH]n1 0.952, Nc1nonc1/C(=N\O)N1CCN(c2ccc([N+](=O)[O-])cc2Cl)CC1 1.16, C(/C#N)(C#N)=C/Nc1cc(F)ccc1F 1.06, Oc1ccc(Sc2ccc(O)cc2O)c(O)c1 0.879, Nc1nnc(SCC(=O)NC2CCCC2)s1 1.22, O=c1cnc2ccc(Br)cc2[nH]1 0.988, CCCSc1nsc(SCCC)c1C(N)=O 1.25, FC(F)(F)Oc1ccc(/N=C\c2ccc(Br)s2)cc1 1.1, Cn1cc(-c2cc(C(=O)O)n[nH]2)cn1 1.49, O=[N+]([O-])c1ccc(N/N=C/c2ccc3c(c2)OCO3)c(C(F)(F)F)c1 1.15, CSc1nc(C)cc(O)n1 0.985, O=[N+]([O-])c1cnn(-c2cnc3ncnn3c2)c1 1.38, Oc1nc2ccccc2nc1O 1.35, C/N=C1/C(=N/O)C=Cc2ccccc21 0.427, CCOC(=O)C1(N)CCC1.Cl 1.3, c1coc(CSSCc2ccco2)c1 1.24

Reference: the supplement of paper PMC4683952
